Source: patent EP0186452A2, “Organosilicon compounds process for their production and pharmaceutical compositions thereof” (SANWA KAGAKU KENKYUSHO CO., LTD., priority 1984, dated 1986)
Some results were stated once for a whole list of compounds, not compound by compound.

Test system: colon-38 carcinoma
Test: Anti-tumor action to colon-38 carcinoma transplanted under skin of mice
Assay type: in vivo, BDF1 female mice
Conditions: 270 - 350 mg/kg/day x 3, oral at 1st, 5th and 9th day; tumor weight at 28th day vs non-treated control
Method: 0.02 ml of 10(W/V) cell suspension prepared from a solid cancer cell (colon-38 carcinoma) was transplanted under skin of BDF1 female mice (20 - 21g, age of about 5 weeks), and each test compound was orally dosed at lst, 5th and 9th day after the transplantation. major and minor axes of the forming cancerous tumor were measured at llth, 14th, 18th, 21st, 25th and 28th day after the transplantation to calcuate the volume ofthe cancerous tumor in accordance with the equation: [formula] • wherein L: major axis (mm) • W: minor axis (mm)
At 28th day from the transplantation, the mice were killed and each of the cancerous tumors was enucleated to measure its weight and to determine an inhibition ratio in comparison with that in a non-treated control group.

Structure (SMILES) | Inhibition Ratio (%)
C[Si](C)(CCCSCCCN)c1ccccc1 [Example 11, 3[[3-(Dimethylphenylsilyl)propyl]thio]propylamine] | < 20 (No noticeable effect can be recognized) %
CC(C)[Si](C)(C)CCCSCCN [Example 6, Z-[[3-(Isopropyldimethylsilyl)propyl]thio]ethylamine] | < 20 (No noticeable effect can be recognized) %
CC(C)[Si](C)(C)CCSCCCN [Example 5, 3-[[2-(Isopropyldimethylsilyl)ethyl]thio]propylamine] | < 20 (No noticeable effect can be recognized) %
CCCCCCCC[Si](C)(C)CCSCCN [Example 1, 2-[[2-(Dimethyl-n-octylsilyl)ethyl]thio]ethylamine] | < 20 (No noticeable effect can be recognized) %
CC(C)[Si](C)(C)CCSCCN [Example 2, Z-([2-(Isopropyldimethylsilyl)ethyl]thio]ethylamine] | < 20 (No noticeable effect can be recognized) %
CC(C)[Si](C)(C)CCCSCCCN [Example 8, 3-[[3-(Isopropyldimethylsilyl)propyl]thio]propylamine] | < 20 (No noticeable effect can be recognized) %
CCCC[Si](C)(C)CCSCCN [Example 3, 2-[[2-(n-Butyldimethylsilyl)ethyl]thio]ethylamine] | < 20 (No noticeable effect can be recognized) %
C[Si](CCSCCN)(c1ccccc1)c1ccccc1 [Example 4, 2-[[2-(Methyldiphenylsilyl)ethyl]thio)ethylamine] | < 20 (No noticeable effect can be recognized) %
CC(C)(C)[Si](C)(C)CCCSCCCN [Example 9, 3-[[3-(t-Butyldimethylsilyl)propyl]thio)propylamine] | < 20 (No noticeable effect can be recognized) %
CCCC[Si](C)(C)CCCSCCCN [Example 10, 3-[[3-(n-Butyldimethylsilyl)propyl)thio)propylamine] | < 20 (No noticeable effect can be recognized) %
CC(C)(C)[Si](C)(C)CCCSCCN [Example 7, 2[[3-(t-Butyldimethylsilyl)propyl]thio]ethylamine] | < 20 (No noticeable effect can be recognized) %
